{"source": "PubChem BioAssay AID270", "about": "(DTP/NCI, 2004)", "test_system": "BDF1 mice, s.c. Lewis lung carcinoma, T/C %", "assay": "NCI In Vivo Anticancer Drug Screen. Data for tumor model Lewis Lung Carcinoma (subcutaneous) in B6D2F1 (BDF1) mice", "method_in_brief": "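Tumor-bearing mice were treated with test compound, and either survival or tumor size was recorded. Values are the treated-group measurement divided by that of the vehicle-treated control group.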", "key": {"[1]": {"details": "T/C endpoint: median survival time, dose: 50.0 mg/kg/injection, schedule: Q01DX009 (ip), vehicle: Klucel (hydroxypropylcellulose) (HPC), higher T/C = longer survival"}, "[2]": {"details": "T/C endpoint: median survival time, dose: 2.0 mg/kg/injection, schedule: Q01DX009 (ip), vehicle: saline, higher T/C = longer survival"}}, "note": "The list shows only some results of the screen, not a fair sample: it gathers tests that were run many times, whatever their T/C, doses with no T/C, and many T/C values between a quarter and a half above the control. Further doses and runs are listed elsewhere. T/C is the treated group as % of the vehicle group. Schedules are NCI's codes, taken here to give the interval after Q, in days (D) or hours (H), and the number of doses after X. Some doses have a count of surviving animals in place of a T/C: the source holds a T/C of zero for them, seemingly a mark for toxic or unscored doses. Some doses without a T/C left all or most animals alive at the check, yet need not have been tolerated: survival well below the control is almost never listed, so the zero probably covers shortened survival too. Counts of survivors are from the toxicity check (mostly the fifth day) where no day follows; animals may have died later. Some entries were tested several times; their values stand side by side, smallest first. For survival time, this PubChem deposit counts one and a half times the control or more as active, and values a quarter to a half above the control carry no call in these data; other NCI protocols may use other cut-offs."}
{"smiles": "CC(CN1CC(=O)NC(=O)C1)N1CC(=O)NC(=O)C1", "note": "(centres undefined)", "values": [{"measurement": "survivor count", "setting": "T/C endpoint: median survival time, dose: 120.0 mg/kg/injection, schedule: Q01DX009 (ip), vehicle: Klucel (hydroxypropylcellulose) (HPC), higher T/C = longer survival", "value": "8 of 10"}, {"measurement": "survivor count", "setting": "T/C endpoint: median survival time, dose: 240.0 mg/kg/injection, schedule: Q01DX009 (ip), vehicle: Klucel (hydroxypropylcellulose) (HPC), higher T/C = longer survival", "value": "10 of 10"}, {"measurement": "survivor count", "setting": "T/C endpoint: median tumor weight (est.), dose: 10.0 mg/kg/injection, schedule: Q03HX032 (ip), vehicle: saline, higher T/C = larger tumour", "value": "5 of 10 on day 16"}, {"measurement": "survivor count", "setting": "T/C endpoint: median tumor weight (est.), dose: 11.0 mg/kg/injection, schedule: Q03HX032 (ip), vehicle: saline, higher T/C = larger tumour", "value": "3 of 10 on day 19"}, {"measurement": "survivor count", "setting": "T/C endpoint: median tumor weight (est.), dose: 15.0 mg/kg/injection, schedule: Q03HX032 (ip), vehicle: saline, higher T/C = larger tumour", "value": "2 of 10 on day 16"}, {"measurement": "survivor count", "setting": "T/C endpoint: median tumor weight (est.), dose: 17.0 mg/kg/injection, schedule: Q03HX032 (ip), vehicle: saline, higher T/C = larger tumour", "value": "2 of 10 on day 19 and 5 of 10 on day 15"}, {"measurement": "survivor count", "setting": "T/C endpoint: median tumor weight (est.), dose: 18.75 mg/kg/injection, schedule: Q03HX032 (ip), vehicle: saline, higher T/C = larger tumour", "value": "2 of 9 on day 16"}, {"measurement": "survivor count", "setting": "T/C endpoint: median tumor weight (est.), dose: 25.0 mg/kg/injection, schedule: Q03HX032 (ip), vehicle: saline, higher T/C = larger tumour", "value": "3 of 10 on day 19 and 4 of 10 on day 15"}, {"measurement": "survivor count", "setting": "T/C endpoint: median tumor weight (est.), dose: 30.0 mg/kg/injection, schedule: Q01DX011 (ip), vehicle: saline, higher T/C = larger tumour", "value": "5 of 10 on day 15"}]}
{"smiles": "CCNCc1cc(Nc2cc(C)nc(/N=C(\\N)Nc3ccc(Cl)c(Cl)c3)n2)ccc1OC", "values": [{"measurement": "survivor count", "setting": "T/C endpoint: median survival time, dose: 6.25 mg/kg/injection, schedule: Q01DX009 (ip), vehicle: Klucel (hydroxypropylcellulose) (HPC), higher T/C = longer survival", "value": "9 of 10 and 10 of 10"}, {"measurement": "survivor count", "setting": "T/C endpoint: median survival time, dose: 12.5 mg/kg/injection, schedule: Q01DX009 (ip), vehicle: Klucel (hydroxypropylcellulose) (HPC), higher T/C = longer survival", "value": "10 of 10"}, {"measurement": "survivor count", "setting": "T/C endpoint: median survival time, dose: 25.0 mg/kg/injection, schedule: Q01DX009 (ip), vehicle: Klucel (hydroxypropylcellulose) (HPC), higher T/C = longer survival", "value": "10 of 10"}, {"measurement": "survivor count", "setting": "[1]", "value": "9 of 10"}]}
{"smiles": "OCN(CO)c1nc(N(CO)CO)nc(N(CO)CO)n1", "values": [{"measurement": "survivor count", "setting": "T/C endpoint: median survival time, dose: 50.0 mg/kg/injection, schedule: Q01DX009 (ip), vehicle: saline with Tween-80, higher T/C = longer survival", "value": "2 of 10"}, {"measurement": "survivor count", "setting": "T/C endpoint: median survival time, dose: 100.0 mg/kg/injection, schedule: Q01DX009 (ip), vehicle: saline with Tween-80, higher T/C = longer survival", "value": "5 of 10"}, {"measurement": "survivor count", "setting": "T/C endpoint: median survival time, dose: 200.0 mg/kg/injection, schedule: Q01DX009 (ip), vehicle: saline with Tween-80, higher T/C = longer survival", "value": "0 of 10"}, {"measurement": "survivor count", "setting": "T/C endpoint: median survival time, dose: 400.0 mg/kg/injection, schedule: Q01DX009 (ip), vehicle: saline with Tween-80, higher T/C = longer survival", "value": "0 of 10"}, {"measurement": "survivor count", "setting": "T/C endpoint: median survival time, dose: 800.0 mg/kg/injection, schedule: Q01DX009 (ip), vehicle: saline with Tween-80, higher T/C = longer survival", "value": "0 of 10"}]}
{"smiles": "CCC[CH2][Sn]1([CH2]CCC)[O]OC(c2ccc(C)cc2)[O]1", "note": "(centres undefined)", "values": [{"measurement": "T/C", "setting": "T/C endpoint: median survival time, dose: 0.38 mg/kg/injection, schedule: Q01DX009 (ip), vehicle: saline with Tween-80, higher T/C = longer survival", "value": "125 % of control"}, {"measurement": "survivor count", "setting": "T/C endpoint: median survival time, dose: 6.25 mg/kg/injection, schedule: Q01DX009 (ip), vehicle: saline with Tween-80, higher T/C = longer survival", "value": "2 of 10"}, {"measurement": "survivor count", "setting": "T/C endpoint: median survival time, dose: 12.5 mg/kg/injection, schedule: Q01DX009 (ip), vehicle: saline with Tween-80, higher T/C = longer survival", "value": "0 of 10"}, {"measurement": "survivor count", "setting": "T/C endpoint: median survival time, dose: 25.0 mg/kg/injection, schedule: Q01DX009 (ip), vehicle: saline with Tween-80, higher T/C = longer survival", "value": "0 of 10"}]}
{"smiles": "COc1cccc2c1C(=O)c1c(O)c3c(c(O)c1C2=O)C[C@@](O)(C(C)=O)C[C@@H]3OC1CC(N)C(O)C(C)O1", "note": "(some centres undefined)", "values": [{"measurement": "T/C", "setting": "T/C endpoint: mean tumor weight, dose: 3.0 mg/kg/injection, schedule: Q01DX011 (sc), vehicle: steroid suspending solution, evaluated on day 12, higher T/C = larger tumour", "value": "130 % of control"}, {"measurement": "survivor count", "setting": "T/C endpoint: mean tumor weight, dose: 4.0 mg/kg/injection, schedule: Q01DX011 (ip), vehicle: saline, higher T/C = larger tumour", "value": "3 of 10"}, {"measurement": "survivor count", "setting": "T/C endpoint: mean tumor weight, dose: 10.0 mg/kg/injection, schedule: Q01DX011 (sc), vehicle: steroid suspending solution, higher T/C = larger tumour", "value": "1 of 6"}, {"measurement": "T/C", "setting": "T/C endpoint: median survival time, dose: 0.25 mg/kg/injection, schedule: Q01DX009 (ip), vehicle: saline, higher T/C = longer survival", "value": "103, 110, 112, 118 % of control"}, {"measurement": "T/C", "setting": "T/C endpoint: median survival time, dose: 0.5 mg/kg/injection, schedule: Q01DX009 (ip), vehicle: saline, higher T/C = longer survival", "value": "91, 94, 102, 116 % of control"}, {"measurement": "T/C", "setting": "T/C endpoint: median survival time, dose: 1.0 mg/kg/injection, schedule: Q01DX009 (ip), vehicle: saline, higher T/C = longer survival", "value": "98, 100, 125, 144 % of control"}, {"measurement": "T/C", "setting": "[2]", "value": "89, 101, 113 % of control"}, {"measurement": "survivor count", "setting": "[2]", "value": "10 of 10"}, {"measurement": "survivor count", "setting": "T/C endpoint: median survival time, dose: 4.0 mg/kg/injection, schedule: Q01DX009 (ip), vehicle: saline, higher T/C = longer survival", "value": "10 of 10"}, {"measurement": "T/C", "setting": "T/C endpoint: median survival time, dose: 250.0 micrograms/kg/injection, schedule: Q01DX009 (ip), vehicle: saline, higher T/C = longer survival", "value": "135 % of control"}]}
{"smiles": "Cc1nn(-c2ccccc2)c(N)c1C#N", "values": [{"measurement": "survivor count", "setting": "T/C endpoint: median survival time, dose: 50.0 mg/kg/injection, schedule: Q01DX009 (ip), vehicle: other, higher T/C = longer survival", "value": "10 of 10"}]}
{"smiles": "O=[N+]([O-])c1ccc(/C=N\\Nc2ccc([N+](=O)[O-])cn2)cc1", "values": [{"measurement": "survivor count", "setting": "[1]", "value": "9 of 10 and 10 of 10"}, {"measurement": "survivor count", "setting": "T/C endpoint: median survival time, dose: 100.0 mg/kg/injection, schedule: Q01DX009 (ip), vehicle: Klucel (hydroxypropylcellulose) (HPC), higher T/C = longer survival", "value": "9 of 10"}, {"measurement": "survivor count", "setting": "T/C endpoint: median survival time, dose: 200.0 mg/kg/injection, schedule: Q01DX009 (ip), vehicle: Klucel (hydroxypropylcellulose) (HPC), higher T/C = longer survival", "value": "6 of 10"}, {"measurement": "survivor count", "setting": "T/C endpoint: median survival time, dose: 400.0 mg/kg/injection, schedule: Q01DX009 (ip), vehicle: Klucel (hydroxypropylcellulose) (HPC), higher T/C = longer survival", "value": "4 of 10"}]}
{"smiles": "Cn1c(=O)[nH]c2nncnc2c1=O", "values": [{"measurement": "survivor count", "setting": "T/C endpoint: median survival time, dose: 2.0 mg/kg/injection, schedule: Q01DX009 (ip), vehicle: water, higher T/C = longer survival", "value": "10 of 10"}, {"measurement": "survivor count", "setting": "T/C endpoint: median survival time, dose: 4.0 mg/kg/injection, schedule: Q01DX009 (ip), vehicle: water, higher T/C = longer survival", "value": "10 of 10"}, {"measurement": "survivor count", "setting": "T/C endpoint: median survival time, dose: 32.0 mg/kg/injection, schedule: Q01DX009 (ip), vehicle: water, higher T/C = longer survival", "value": "10 of 10"}, {"measurement": "survivor count", "setting": "T/C endpoint: median survival time, dose: 64.0 mg/kg/injection, schedule: Q01DX009 (ip), vehicle: water, higher T/C = longer survival", "value": "1 of 10"}]}
{"smiles": "O=NN(CCCl)C(=O)N[C@H]1CCCC[C@H]1Cl", "values": [{"measurement": "T/C", "setting": "T/C endpoint: median survival time, dose: 45.0 mg/kg/injection, schedule: Q01DX001 (ip), vehicle: Klucel (hydroxypropylcellulose) (HPC), higher T/C = longer survival", "value": "132 % of control"}, {"measurement": "T/C", "setting": "T/C endpoint: median survival time, dose: 90.0 mg/kg/injection, schedule: Q01DX001 (ip), vehicle: Klucel (hydroxypropylcellulose) (HPC), higher T/C = longer survival", "value": "140 % of control"}, {"measurement": "T/C", "setting": "T/C endpoint: median survival time, dose: 180.0 mg/kg/injection, schedule: Q01DX001 (ip), vehicle: Klucel (hydroxypropylcellulose) (HPC), higher T/C = longer survival", "value": "140 % of control"}]}
